No constants are given. Whether binding was seen depends on the method and setting. A result given as binding can be weak or reduced; the word gives no strength.

Amino acid sequences for entries named in this document (tags omitted). A change or cut given only in a name is not applied to a line headed by its entry.
UniProt Q8NBP7: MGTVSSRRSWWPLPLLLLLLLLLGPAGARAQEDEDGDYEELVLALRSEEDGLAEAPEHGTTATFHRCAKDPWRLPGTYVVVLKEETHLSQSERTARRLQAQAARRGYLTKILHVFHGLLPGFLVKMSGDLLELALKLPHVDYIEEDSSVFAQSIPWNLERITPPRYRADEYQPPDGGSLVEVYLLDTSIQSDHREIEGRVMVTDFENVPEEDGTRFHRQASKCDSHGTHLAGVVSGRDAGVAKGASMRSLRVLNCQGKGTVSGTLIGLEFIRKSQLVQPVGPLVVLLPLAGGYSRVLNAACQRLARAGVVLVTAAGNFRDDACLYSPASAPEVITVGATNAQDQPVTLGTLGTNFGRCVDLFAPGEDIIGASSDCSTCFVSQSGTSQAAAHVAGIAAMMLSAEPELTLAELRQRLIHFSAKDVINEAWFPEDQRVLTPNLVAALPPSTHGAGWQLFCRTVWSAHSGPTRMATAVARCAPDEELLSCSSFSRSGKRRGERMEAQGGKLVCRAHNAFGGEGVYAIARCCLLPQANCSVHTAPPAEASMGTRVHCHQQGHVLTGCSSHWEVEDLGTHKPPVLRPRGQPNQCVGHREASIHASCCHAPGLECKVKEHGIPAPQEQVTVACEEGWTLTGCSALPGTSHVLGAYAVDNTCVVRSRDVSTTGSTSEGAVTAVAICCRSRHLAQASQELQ

The target of the first experiment is PCSK9Δhelix (human) (UniProt Q8NBP7). Kind of experiment: SPR. A general note: In SPR one partner is held on a chip, and binding of the other changes the refractive index at the surface.
For the molecule CRLPWNLARIGLPC (N-terminal acetyl; C-terminal amide; disulfide-cyclized) [Compound 73], the binding result is “binds”. Same read-out and setting: for TVFTSWEEYLDWVGSGDLMPWNLVRIGLLR (N-terminal acetyl; C-terminal amide) [Compound 20] the value was “binds”; for CRLPWNLQRIGLPC (N-terminal acetyl; C-terminal amide; disulfide-constrained macrocycle) [Compound 32], “binds”; for TVFTSWEEYLDWVGSGCWNLKRIGSQGC (N-terminal acetyl; C-terminal amide; disulfide C17-C28) [Compound 2], “binds”.

Take TVFTSWEEYLDWVGSGCRLPWNLQRIGLPC (N-terminal acetyl; C-terminal amide; disulfide-linked extension) [Compound 19]: the binding entry is on record as “binds”.

For the next experiment the target is unchanged. Kind of experiment: phage spot ELISA.
For SGPRTYLRGLVD [SEQ ID NO 366], the binding entry is recorded as “binds”. Same read-out and setting: under SGVCSDHYIGGKEVRC [SEQ ID NO 378] stands “binds”.

As to SGCWTYLRGGCSVT [SEQ ID NO 373], the binding result is “binds”. Still for that read-out and setting: for SGGSIPWNLERITPPR [SEQ ID NO 382] the value was “binds”. On the same count and under the same terms, under SGEHQFYSYRGVDVYR [SEQ ID NO 370] stands “binds”.

Regarding SGLAPTVSDS [SEQ ID NO 375], the binding entry is “binds”. On the same count and under the same terms, for SGMVYVDRGVRVFT [SEQ ID NO 368] the value was “binds”; for SGTPEMPAML [SEQ ID NO 374], “binds”; for SGSYRGAWSVFGGSTD [SEQ ID NO 372], “binds”.

With SGAGKLDLSG [SEQ ID NO 377], the binding result is reported as “binds”.

As to SGHASKGMVLSG [SEQ ID NO 381], the binding entry is given as “binds”. Same read-out and setting: under SGGCVKYRGSVSCQESKT [SEQ ID NO 369] stands “binds”; under SGNCWSSLRGICENLG [SEQ ID NO 367], “binds”.

On to SGRNGSGYINRGIEIW [SEQ ID NO 380], for which the binding result was “binds”. On the same count and under the same terms, under SGNALWNHDRLT [SEQ ID NO 379] stands “binds”; under TAFTSWEEYLDWVGSGRCGLAWCVVLVDQ [SEQ ID NO 365], “binds”; under SGACLNHFVSGNMIRC [SEQ ID NO 371], “binds”.

For SGDTRSQLSH [SEQ ID NO 376], the binding result is “binds”.

Another experiment shares this target. The experiment is described as follows: phage competition ELISA. (In general: ELISA stands for enzyme-linked immunosorbent assay.)
On to SGDLMPWNLVRIGLLR [K9gvpep7], for which the binding entry is recorded as “binds”. Same read-out and setting: for TVFTSWEEYLDWVGSGDLMPWNLVRIGLLR (N-terminal acetyl; C-terminal amide) [Compound 20] the value was “binds”.

For the molecule SGCRLPWNLQRIGLPC [K9gvpep4], the binding entry was “binds”. In the case of TVFTSWEEYLDWVGSGCRLPWNLQRIGLPC (N-terminal acetyl; C-terminal amide; disulfide-linked extension) [Compound 19], the binding entry is “binds”.

Another experiment shares this target. The experiment is described as follows: Ab20 TR-FRET assay and SPR. (In general: Time-resolved FRET reads energy transfer from a long-lived donor to a nearby acceptor.)
For MPWNLVRIGLLR (N-terminal acetyl; C-terminal amide) [Compound 51], the binding entry was “binds”. On the same count and under the same terms, under LMPWNLVRIGLLR (N-terminal acetyl; C-terminal amide) [Compound 50] stands “binds”; under PWNLVRIGLLR (N-terminal acetyl; C-terminal amide) [Compound 52], “binds”.

A further experiment shares this target. The experiment is described as follows: TR-FRET competition, Ab20 as competitor.
As for TVFTSWEEYLDWVGSGKLWN (N-terminal acetyl; C-terminal amide) [Compound 7], the binding entry was “binds”. Same read-out and setting: for CRLPWNLKRIGLPC (N-terminal acetyl; C-terminal amide; disulfide-cyclized) [Compound 67] the value was “binds”.

For TVFTSWEEYLDWVGSGGCRLPWNLQRIGLPC (N-terminal acetyl; C-terminal amide; disulfide-linked extension) [Compound 25], the binding entry is given as “binds”.

TVFTSWEEYLDWVGSGGCFLPWNLQRIGLLC (N-terminal acetyl; C-terminal amide; disulfide-linked extension) [Compound 38]: the binding entry is “binds”.

In the case of TVFTSWEEYLDWVGSGDLMPWNLVRIGLLR (N-terminal acetyl; C-terminal amide) [Compound 20], the binding result is “binds”. On the same count and under the same terms, for DLMPWNLVRIGLLR (N-terminal acetyl; C-terminal amide) [Compound 35] the value was “binds”; for TVFTSWEEYLDWVGGSGCWNLKRIGSQGC (N-terminal acetyl; C-terminal amide; disulfide-linked extension) [Compound 13], “binds”. For the molecule CRLPWNLQRIGLPC (N-terminal acetyl; C-terminal amide; disulfide-constrained macrocycle) [Compound 32], the binding result was “binds”. Same read-out and setting: for MCLWNLKRIGSQCEY (N-terminal acetyl; C-terminal amide; disulfide-cyclized) [Compound 63] the value was “binds”; for TVFTSWEEYLDWVGSGCRLPWNLQRIGLPC (N-terminal acetyl; C-terminal amide; disulfide-linked extension) [Compound 19], “binds”. On to TVFTSWEEYLDWVGSGKLWNLGRV (N-terminal acetyl; C-terminal amide) [Compound 1], for which the binding entry is on record as “binds”.

Consider TVFTSWEEYLDWVGSGKLWNLGR (N-terminal acetyl; C-terminal amide) [Compound 4], for which the binding result was “binds”. Same read-out and setting: under TVFTSWEEYLDWVGSGKLWNL (N-terminal acetyl; C-terminal amide) [Compound 6] stands “binds”; under TVFTSWEEYLDWVGSGGCWNLKRIGSQGC (N-terminal acetyl; C-terminal amide; disulfide-linked extension) [Compound 14], “binds”.

Source of the values: patent publication US20190177366A1.
